Article PMC11354204, “Lactylation stabilizes TFEB to elevate autophagy and lysosomal activity” (The Journal of Cell Biology, 2024)
Results are given in words; binding and its absence hold for the method and conditions named. Binding seen in cells or lysates may run through a third protein. Some results given as binding are weak or reduced against the parent protein; the word gives no strength.

Protein sequences, listed by entry. Tags and fused reporters are not part of them.
UniProt P19484: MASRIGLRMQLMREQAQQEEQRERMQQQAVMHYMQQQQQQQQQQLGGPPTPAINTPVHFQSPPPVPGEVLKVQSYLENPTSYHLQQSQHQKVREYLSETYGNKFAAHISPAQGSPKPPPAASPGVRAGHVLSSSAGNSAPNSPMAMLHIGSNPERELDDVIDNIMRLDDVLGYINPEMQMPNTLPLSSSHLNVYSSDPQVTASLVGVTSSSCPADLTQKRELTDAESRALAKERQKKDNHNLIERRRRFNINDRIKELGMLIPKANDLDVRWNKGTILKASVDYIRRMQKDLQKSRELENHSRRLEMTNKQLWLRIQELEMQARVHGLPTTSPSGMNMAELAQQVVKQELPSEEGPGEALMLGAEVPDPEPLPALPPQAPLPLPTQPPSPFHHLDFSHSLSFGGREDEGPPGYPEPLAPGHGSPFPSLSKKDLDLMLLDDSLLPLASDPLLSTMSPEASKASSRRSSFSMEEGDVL
UniProt Q9Y508: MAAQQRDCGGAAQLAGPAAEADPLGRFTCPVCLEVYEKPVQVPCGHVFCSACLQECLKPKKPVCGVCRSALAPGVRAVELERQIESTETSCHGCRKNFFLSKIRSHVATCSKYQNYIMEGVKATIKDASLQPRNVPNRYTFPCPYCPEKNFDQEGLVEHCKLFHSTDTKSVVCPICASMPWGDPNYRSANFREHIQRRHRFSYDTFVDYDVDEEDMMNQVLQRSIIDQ
UniProt Q13619: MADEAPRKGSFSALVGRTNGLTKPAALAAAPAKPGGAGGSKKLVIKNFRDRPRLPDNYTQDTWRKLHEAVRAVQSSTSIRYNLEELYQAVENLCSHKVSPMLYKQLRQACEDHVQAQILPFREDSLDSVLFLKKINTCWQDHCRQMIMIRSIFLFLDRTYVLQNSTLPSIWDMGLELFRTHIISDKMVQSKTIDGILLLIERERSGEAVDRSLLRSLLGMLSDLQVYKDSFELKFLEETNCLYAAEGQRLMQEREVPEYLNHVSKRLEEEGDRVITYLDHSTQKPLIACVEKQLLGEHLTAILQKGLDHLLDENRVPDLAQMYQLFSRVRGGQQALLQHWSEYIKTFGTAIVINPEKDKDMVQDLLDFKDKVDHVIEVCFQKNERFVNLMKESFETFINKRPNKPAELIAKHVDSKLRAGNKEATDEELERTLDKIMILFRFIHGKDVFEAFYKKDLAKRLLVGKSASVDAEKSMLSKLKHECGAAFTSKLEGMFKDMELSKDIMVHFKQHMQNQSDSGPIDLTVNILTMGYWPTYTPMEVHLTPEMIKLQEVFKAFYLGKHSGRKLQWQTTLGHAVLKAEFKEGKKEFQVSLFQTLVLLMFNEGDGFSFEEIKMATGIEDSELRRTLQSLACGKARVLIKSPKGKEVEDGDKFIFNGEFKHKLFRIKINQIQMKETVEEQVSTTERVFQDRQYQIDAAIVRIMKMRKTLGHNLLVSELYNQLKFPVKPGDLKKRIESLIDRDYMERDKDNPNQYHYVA
UniProt Q13620: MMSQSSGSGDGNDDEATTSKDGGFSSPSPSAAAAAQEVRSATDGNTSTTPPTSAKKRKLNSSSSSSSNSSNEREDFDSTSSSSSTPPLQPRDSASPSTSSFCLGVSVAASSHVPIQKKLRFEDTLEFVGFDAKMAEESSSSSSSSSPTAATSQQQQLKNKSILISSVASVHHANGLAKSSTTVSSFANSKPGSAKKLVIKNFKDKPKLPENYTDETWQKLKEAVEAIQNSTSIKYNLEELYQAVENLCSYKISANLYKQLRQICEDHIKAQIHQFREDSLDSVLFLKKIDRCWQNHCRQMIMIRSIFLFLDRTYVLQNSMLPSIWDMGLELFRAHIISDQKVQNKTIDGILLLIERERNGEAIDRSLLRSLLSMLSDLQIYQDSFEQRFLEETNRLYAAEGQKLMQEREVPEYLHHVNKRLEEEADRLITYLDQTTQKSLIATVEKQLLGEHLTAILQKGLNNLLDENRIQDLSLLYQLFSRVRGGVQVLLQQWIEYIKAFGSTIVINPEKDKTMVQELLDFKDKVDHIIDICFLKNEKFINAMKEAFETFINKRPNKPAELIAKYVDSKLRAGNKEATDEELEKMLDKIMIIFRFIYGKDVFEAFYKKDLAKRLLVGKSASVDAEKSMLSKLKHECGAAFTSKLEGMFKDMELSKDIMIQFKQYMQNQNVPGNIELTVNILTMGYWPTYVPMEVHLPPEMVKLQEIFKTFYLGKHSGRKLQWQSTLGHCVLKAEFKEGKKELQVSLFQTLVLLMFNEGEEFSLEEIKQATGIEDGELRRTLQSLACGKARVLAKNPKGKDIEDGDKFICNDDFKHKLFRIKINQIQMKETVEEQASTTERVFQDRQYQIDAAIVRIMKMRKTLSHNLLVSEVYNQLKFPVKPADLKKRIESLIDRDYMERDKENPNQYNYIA
UniProt Q9UNE7: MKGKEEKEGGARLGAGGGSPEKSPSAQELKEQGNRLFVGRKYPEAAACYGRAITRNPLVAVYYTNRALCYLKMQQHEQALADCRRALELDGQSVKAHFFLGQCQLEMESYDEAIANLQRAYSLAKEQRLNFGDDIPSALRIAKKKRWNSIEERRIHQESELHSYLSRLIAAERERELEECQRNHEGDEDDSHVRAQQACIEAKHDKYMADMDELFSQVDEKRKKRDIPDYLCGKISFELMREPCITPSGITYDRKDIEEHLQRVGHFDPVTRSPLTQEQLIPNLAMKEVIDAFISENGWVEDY

Biological target: TFEB-Flag (human) (UniProt P19484)
Experiment: co-IP; HEK293 cells with TFEB-Flag (stably expressed, Fig. S3 D; cotransfected, Fig. 4 C) and an HA-tagged partner; TFEB-Flag precipitated with anti-Flag, blotted with anti-HA; NP-40 lysis buffer, 4°C

binding	Substance
binds	HA-RNF114 (from UniProt Q9Y508 1-228)
binds	HA-tagged Cullin4A (from UniProt Q13619 1-759)
no binding	HA-tagged Cullin4B (from UniProt Q13620 1-913)
binds	HA-tagged STUB1 (from UniProt Q9UNE7 1-303)
